Reference: paper PMC12040169 (PLOS Biology, 2025)
Like-named read-outs stand apart in the source and are kept apart here. The list shows a part of the results.

System: T1, CTL2-GFP (C. trachomatis L2/434/Bu, GFP-expressing)
T1 construct: L2/434/Bu, GFP-expressing
Parameters: species or system HeLa; Intracellular C. trachomatis growth in HeLa cells, bulk GFP fluorescence relative to DMSO
Details: bulk GFP, single well, 28.5 h, 10 µM, inhibitor

Row | Structure (SMILES) | % of control remaining [%] | % of control remaining (Bulk GFP fluorescence) [%]
1 | COc1ccccc1CNC(=O)c1ccc2nc(C)c(N(C)C(=O)c3cccs3)n2c1 [CBK146546] | 149.544 | –
2 | O=C(COc1cccnc1)NCc1ccc(-c2csnn2)cc1 [CBK149312] | 106.247 | –
3 | Cc1cc(NC(=O)C(C)(C)Oc2ccc(Cl)cc2)nc2c1c(=O)oc1ccccc12 [CBK291132] | 107.736 | –
4 | Cc1noc(C)c1C(=O)N1CCCCCC1c1c(Cl)cnn1C (stereo not shown) [CBK284918] | 107.296 | –
5 | Cc1noc(C)c1C(=O)Nc1cnc(-c2ccc(F)cc2)c(-c2ccsc2)n1 [CBK036781] | 92.8532 | –
6 | O=C(CCn1cnc2ccccc21)N1CCC(c2ccncc2)CC1 [CBK283522] | 128.895 | –
7 | c1ccc(CN2C[C@H]3CCc4c[nH]nc4[C@H]3C2)nc1 [CBK282108] | 158.985 | –
8 | COc1ccc(C(C)c2cc3c(cc2N)OCO3)cc1 (stereo not shown) [CBK200102T] | 88.7804 | –
9 | COc1cccc(-c2nccc3ccn(CC(=O)N4CC=CCC4)c23)c1 [CBK284806] | 134.179 | –
10 | CCOC1=NCCN2CCc3cccc1c32 [CBK023113] | 113.149 | –
11 | CCCN(C)Cc1ccc(-c2nnn(CC(=O)NCc3ccc(CC)cc3)n2)cc1NC(C)=O [CBK164703] | 117.51 | –
12 | N/C(=N\OC(=O)c1cccc(Br)c1)c1ccccc1 [CBK261703] | 106.958 | –
13 | N#C/C(=C\c1cn(Cc2ccc(Cl)cc2Cl)nc1-c1ccccc1)c1nc2ccccc2[nH]1 [CBK262545] | 112.223 | –
14 | Cc1nnc(SCC(=O)N/N=C/c2cc([N+](=O)[O-])ccc2O)n1-c1ccccc1 [CBK262768] | 116.287 | –
15 | COc1ccc2[nH]c3c(c2c1)CCN(S(C)(=O)=O)C31CCN(CCOc2ccccc2)C1 (stereo not shown) [CBK063187T] | 118.828 | –
16 | Clc1ccc(COc2nccnc2OC2CCN(CC3CC3)CC2)cc1Cl [CBK083123] | – | 125.025
17 | Cc1cc2c(s1)c1cnn(Cc3cccnc3)c(=O)c1n2C [CBK284154] | 128.344 | –
18 | Cn1nc(C(C)(C)C)cc1C(=O)N1CCNC(=O)C1Cc1ccccc1-c1ccc(F)cc1 (stereo not shown) [CBK285830] | 121.031 | –
19 | Nc1ncc(-c2ccccc2)nc1NC1CCOCC1 [CBK063748] | 195.453 | –
20 | CN1CCN(S(=O)(=O)c2ccc(Br)cc2C(F)(F)F)CC1 [CBK062437] | 90.3016 | –
21 | Cc1ccc(C(=O)O)cc1S(=O)(=O)N(CCO)CCO [CBK267335] | 156.614 | –
22 | Cc1cc(Cl)cc(Br)c1OCCNCCN(C)C [CBK267791G] | 92.4375 | –
23 | CC(C)CCn1c(=S)[nH]c2c(oc3ccccc32)c1=O [CBK288504] | 95.1188 | –
24 | CC1CC(C)CN(C(=O)c2cc(S(=O)(=O)N3CCOCC3)ccc2Cl)C1 (stereo not shown) [CBK305000] | 123.622 | –
25 | O=C(O)C1C2C=CC(C2)C1C(=O)N1CCN(C(c2ccccc2)c2ccccc2)CC1 (stereo not shown) [CBK262659] | 119.444 | –
26 | COc1cc(-c2cnc3[nH]c(=O)n(C4CCOCC4)c3n2)cc(OC)c1OC [CBK064255] | 166.606 | –
27 | COCCCOc1cncc(NC(C)C)n1 [CBK115880] | 122.878 | –

Some values from the results shown.
Entry for N/C(=N\OC(=O)c1cccc(Br)c1)c1ccccc1 [CBK261703] under % of control remaining [%]: 106.958
Entry for COc1cc(-c2cnc3[nH]c(=O)n(C4CCOCC4)c3n2)cc(OC)c1OC [CBK064255] under % of control remaining [%]: 166.606
Entry for COCCCOc1cncc(NC(C)C)n1 [CBK115880] under % of control remaining [%]: 122.878
Entry for N#C/C(=C\c1cn(Cc2ccc(Cl)cc2Cl)nc1-c1ccccc1)c1nc2ccccc2[nH]1 [CBK262545] under % of control remaining [%]: 112.223
Entry for CCOC1=NCCN2CCc3cccc1c32 [CBK023113] under % of control remaining [%]: 113.149
Entry for Cn1nc(C(C)(C)C)cc1C(=O)N1CCNC(=O)C1Cc1ccccc1-c1ccc(F)cc1 (stereo not shown) [CBK285830] under % of control remaining [%]: 121.031

Remaining list, next part

Row | Structure (SMILES) | % of control remaining [%] | % of control remaining (Bulk GFP fluorescence) [%]
28 | Cc1cccc(-c2ocnc2C(=O)NCCCn2ccnc2)c1 [CBK282418] | 126.939 | –
29 | Cc1ccccc1N1CCN(C(=O)c2c(C)oc3cc4c(C(=O)N5CCN(c6ccccc6C)CC5)c(C)oc4cc23)CC1 [CBK264833] | 100 | –
30 | Cc1ccc(-c2nc3cc(Cl)ccc3o2)cc1NC(=S)NC(=O)c1cccc(Cl)c1 [CBK264022] | 108.906 | –
31 | CC(C)CCNC(=O)c1c(O)c2ccccc2[nH]c1=O [CBK159975] | 143.114 | –
32 | Nc1nc(NCCOc2ccccc2Cl)cc(C2CC(N)C2)n1 (stereo not shown) [CBK306825] | 95.7998 | –
33 | CCc1cc(=O)[nH]c(-c2ccc(N3CC(C(N)=O)CCC3C)nc2)n1 (stereo not shown) [CBK306448] | 90.5663 | –
34 | COc1cc(-c2ccc3ccc(N)nc3n2)cc(OC)c1OC [CBK061866] | 131.231 | –
35 | O=C(O)c1ccc(CSc2nnnn2-c2ccccc2)cc1 [CBK286726] | 115.993 | –
36 | CC(C)NS(=O)(=O)c1ccc(NS(=O)(=O)c2ccc(F)c(C(=O)O)c2)cc1 [CBK297533] | 141.045 | –
37 | Cc1ccccc1C(=O)NC(=S)Nc1sc2c(c1C(N)=O)CCC2 [CBK262107] | 87.8479 | –
38 | COc1cc(OC)nc(C(NC(=O)C2CCN(Cc3ccccc3F)CC2)c2ccc(Cl)cc2)n1 (stereo not shown) [CBK148152] | 124.695 | –
39 | CCn1c(C)nc2cc(NC(=O)c3cnn(C)c3)ccc21 [CBK281837] | 143.15 | –
40 | Nc1cccc(-c2nccnc2NCCc2ccccn2)c1 [CBK037512] | 113.781 | –
41 | CC(C)N1CC[C@@H]2[C@H]1C(=O)NC[C@H](CCC(=O)Nc1ccccc1)N2C [CBK289030] | 138.301 | –
42 | C[C@H](Nc1cncc(-c2cccc(C(=O)NCCO)c2)n1)c1ccccc1 [CBK066007] | 75.2403 | –
43 | Cc1cc(CN(C)Cc2c(C)nn(-c3ccc(F)cc3)c2C)n[nH]1 [CBK281990] | 136.823 | –
44 | C#CCNC(=O)CC[C@H]1CNC(=O)[C@@H]2[C@@H](CCN2Cc2ccc(C)cc2)N1C [CBK289036] | 165.35 | –
45 | COC(=O)c1ccc(C)c(NS(=O)(=O)c2cc(Cl)ccc2Cl)c1 [CBK077971] | 112.406 | –
46 | COC(=O)C(NC(=O)c1cnc(-c2ccc(Cl)cc2)c(-c2ccc(O)cc2)c1)c1ccccc1 (stereo not shown) [CBK036723] | 121.321 | –
47 | Cc1cccc(OCCn2c(SCCC(=O)O)nc3ccccc32)c1 [CBK264682] | 130.177 | –
48 | COc1ccc([C@@]23CCCN(C(=O)Nc4ccc(C)c(F)c4)C[C@@H]2N(C)CC3)cc1OC [CBK056680T] | 94.1621 | –
49 | Cc1cc(C(=O)NCc2cccnc2N(C)C2CCCCC2)nn1C [CBK306577] | 112.826 | –
50 | Cc1onc(-c2ccccc2)c1CNC(=O)c1ccco1 [CBK144074] | 118.419 | –
51 | COc1ccc(C2=NN(c3ccccc3)C(c3cn(-c4ccccc4)nc3-c3ccccc3)C2)cc1 (stereo not shown) [CBK263230] | 123.202 | –
52 | O=S(=O)(Nc1ccc(N2CCNCC2)nc1)c1ccc(F)cc1F [CBK000022C] | 56.9809 | –
53 | COc1cc(C(=O)N2CCC3(CC2)CC(=O)c2cc(CN4CCN(C)CC4)ccc2O3)cc(OC)c1C [CBK169185] | 118.075 | –
54 | COc1ccc(C)cc1NC(=O)Nc1nc(C)cs1 [CBK006565] | 100.917 | –

Row | Structure (SMILES) | % of control remaining [%] | % of control remaining (Bulk GFP fluorescence) [%]
55 | O=C1NC(=O)C(CCCCN2CCCC3(CCN(C(=O)Cc4c[nH]c5ccccc45)C3)C2)N1 (stereo not shown) [CBK132059] | 121.645 | –
56 | CCNC(=O)c1cc2c(=O)n3ccccc3nc2n1C [CBK287556] | 115.013 | –
57 | CC(=O)Nc1ccc(S(=O)(=O)c2cc(O)ccc2O)cc1 [CBK261372] | 100 | –
58 | O=C(c1cc(C2CC2)on1)N1CCc2ncc(Cl)cc2C1 [CBK284855] | 114.385 | –
59 | Cc1cc(N)cc(C)c1O [CBK012062C] | 61.1511 | –
60 | O=C(NCc1ccco1)NC(=O)c1ccc(Cl)cc1 [CBK269461] | 124.715 | –
61 | OCCN(Cc1cccnc1)CC1(c2ccc(Cl)cc2)CC1 [CBK282943] | 69.5091 | –
62 | CC(CN(C)C)C(=O)c1cn(C)c2ccccc12 (stereo not shown) [CBK015540] | 166.52 | –
63 | COCc1nnc(Sc2ccc(C(F)(F)F)cn2)s1 [CBK115219] | 105.356 | –
64 | CN1CC=C(/C=C/C2=Cc3ccccc3OC2)CC1 [CBK283857] | 121.759 | –
65 | COC(=O)c1ccc(NS(=O)(=O)Cc2ccccc2)cc1 [CBK028699] | 132.111 | –
66 | CCC(CO)Nc1nccnc1-c1ccsc1 (stereo not shown) [CBK036606] | 121.528 | –
67 | COc1ccc(C(=O)Nc2ccccc2C(=O)N2CCOCC2)cc1Br [CBK269923] | 128.22 | –
68 | Cc1cnc2[nH]c(C(F)(F)F)c(CN3CCCC(CO)C3)c2c1 (stereo not shown) [CBK285167] | 105.251 | –
69 | Nc1ncc(-c2cc(C(F)(F)F)cc(C(F)(F)F)c2)nc1NC1CCC(O)CC1 (stereo not shown) [CBK063808] | 113.514 | –
70 | O=C(NCCN1CCOCC1)c1nnc(C(=O)Nc2cccc(Cl)c2)s1 [CBK294405] | 142.461 | –
71 | CCOC(=O)C1(N)CCCC1 [CBK073836C] | 160.615 | –
72 | O=C(Cn1cccc(C(=O)NC2CCCC2)c1=O)NCC1(c2ccccc2)CCCC1 [CBK285975] | 124.693 | –
73 | O=C(Cn1nc2n(c1=O)CCCCC2)NCC(O)c1ccc(F)cc1 (stereo not shown) [CBK305187] | 122.309 | –
74 | COc1ccc(CCNC(=O)N(C)C2CCN(C)C2)cc1 (stereo not shown) [CBK156019] | 109.167 | –
75 | O=c1[nH]cc(-c2ccc(F)cc2)cc1CNCc1cccc(F)c1 [CBK284697] | 140.525 | –
76 | CCN(CC)CCn1c(=N)n(Cc2ccc(C(C)(C)C)cc2)c2ccccc21 [CBK268803B] | 107.378 | –
77 | COc1ccccc1CCCN1CCC(C(=O)NC(=O)Nc2ccccc2)CC1 [CBK034865] | 100 | –
78 | Fc1ccc(CSc2nnnn2-c2ccc3c(c2)OCO3)cc1 [CBK293927] | 139.355 | –
79 | CC(=O)Nc1ccc(S(=O)(=O)/N=C(/Nc2nc(C)cc(C)n2)Nc2ccccc2C)cc1 [CBK264101] | 124.937 | –
